# Assay results as given in the supplement of paper PMC12067093, “Discovery and optimisation of a covalent ligand for TRIM25 and its application to targeted protein ubiquitination” (Chemical Science, 2025).
# Protein sequences, listed by entry. Tags and fused reporters are not part of them. Lines headed by an entry give the natural chain unless they say otherwise; changes in a name come on top.
# UniProt Q13011: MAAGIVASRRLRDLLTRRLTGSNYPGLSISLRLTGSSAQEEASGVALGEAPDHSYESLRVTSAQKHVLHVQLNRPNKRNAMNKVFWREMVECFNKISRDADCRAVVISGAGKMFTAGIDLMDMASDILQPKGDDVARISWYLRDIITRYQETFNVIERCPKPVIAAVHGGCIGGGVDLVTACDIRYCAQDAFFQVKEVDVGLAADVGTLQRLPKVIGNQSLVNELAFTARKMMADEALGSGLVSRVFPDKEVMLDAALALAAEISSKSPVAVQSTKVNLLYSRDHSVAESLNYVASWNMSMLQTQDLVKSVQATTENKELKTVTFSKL
# UniProt Q9H8V3: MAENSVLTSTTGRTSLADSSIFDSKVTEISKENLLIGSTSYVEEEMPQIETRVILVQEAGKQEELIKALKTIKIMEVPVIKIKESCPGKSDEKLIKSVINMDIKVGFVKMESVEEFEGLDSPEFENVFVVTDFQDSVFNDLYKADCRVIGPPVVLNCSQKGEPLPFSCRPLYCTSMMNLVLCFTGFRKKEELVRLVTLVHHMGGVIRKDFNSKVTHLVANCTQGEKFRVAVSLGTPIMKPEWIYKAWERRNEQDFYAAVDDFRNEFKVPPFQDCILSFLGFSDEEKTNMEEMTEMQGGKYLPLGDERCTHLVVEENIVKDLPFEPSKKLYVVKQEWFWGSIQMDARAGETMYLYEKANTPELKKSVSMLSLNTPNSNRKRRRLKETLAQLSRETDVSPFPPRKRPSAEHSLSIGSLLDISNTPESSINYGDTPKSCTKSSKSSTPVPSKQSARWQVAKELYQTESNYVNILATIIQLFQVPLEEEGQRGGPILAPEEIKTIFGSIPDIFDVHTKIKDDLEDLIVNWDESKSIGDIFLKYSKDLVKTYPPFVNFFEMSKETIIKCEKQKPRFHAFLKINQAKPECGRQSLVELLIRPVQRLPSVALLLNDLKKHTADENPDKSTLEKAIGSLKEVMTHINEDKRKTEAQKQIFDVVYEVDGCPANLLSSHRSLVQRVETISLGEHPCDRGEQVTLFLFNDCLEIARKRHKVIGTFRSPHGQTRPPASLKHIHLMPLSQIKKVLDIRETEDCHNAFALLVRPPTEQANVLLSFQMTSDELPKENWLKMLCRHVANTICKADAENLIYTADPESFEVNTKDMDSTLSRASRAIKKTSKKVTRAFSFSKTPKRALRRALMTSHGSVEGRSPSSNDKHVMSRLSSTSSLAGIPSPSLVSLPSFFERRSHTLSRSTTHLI
# UniProt Q8WVE0: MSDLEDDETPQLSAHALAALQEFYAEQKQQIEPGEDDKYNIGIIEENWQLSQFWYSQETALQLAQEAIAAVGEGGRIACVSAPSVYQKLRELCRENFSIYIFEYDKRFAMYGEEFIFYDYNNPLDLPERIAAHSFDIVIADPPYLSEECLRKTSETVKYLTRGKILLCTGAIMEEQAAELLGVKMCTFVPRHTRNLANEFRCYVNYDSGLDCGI
# UniProt Q16610: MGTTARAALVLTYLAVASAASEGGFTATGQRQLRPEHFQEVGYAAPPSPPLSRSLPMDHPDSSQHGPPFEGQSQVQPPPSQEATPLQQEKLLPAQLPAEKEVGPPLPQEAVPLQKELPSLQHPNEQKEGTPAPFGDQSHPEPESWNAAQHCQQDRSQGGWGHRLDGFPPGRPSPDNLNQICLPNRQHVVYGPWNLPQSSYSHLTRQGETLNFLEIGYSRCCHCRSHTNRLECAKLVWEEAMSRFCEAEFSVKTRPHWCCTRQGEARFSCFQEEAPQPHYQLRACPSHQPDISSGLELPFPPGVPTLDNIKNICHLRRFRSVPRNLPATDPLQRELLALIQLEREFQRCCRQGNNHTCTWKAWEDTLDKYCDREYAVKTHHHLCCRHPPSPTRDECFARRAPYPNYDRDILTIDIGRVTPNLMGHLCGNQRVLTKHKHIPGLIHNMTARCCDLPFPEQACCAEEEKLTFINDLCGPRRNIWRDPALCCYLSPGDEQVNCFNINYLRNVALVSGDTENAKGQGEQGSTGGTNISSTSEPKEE
# UniProt Q05639, whole entry, looked up: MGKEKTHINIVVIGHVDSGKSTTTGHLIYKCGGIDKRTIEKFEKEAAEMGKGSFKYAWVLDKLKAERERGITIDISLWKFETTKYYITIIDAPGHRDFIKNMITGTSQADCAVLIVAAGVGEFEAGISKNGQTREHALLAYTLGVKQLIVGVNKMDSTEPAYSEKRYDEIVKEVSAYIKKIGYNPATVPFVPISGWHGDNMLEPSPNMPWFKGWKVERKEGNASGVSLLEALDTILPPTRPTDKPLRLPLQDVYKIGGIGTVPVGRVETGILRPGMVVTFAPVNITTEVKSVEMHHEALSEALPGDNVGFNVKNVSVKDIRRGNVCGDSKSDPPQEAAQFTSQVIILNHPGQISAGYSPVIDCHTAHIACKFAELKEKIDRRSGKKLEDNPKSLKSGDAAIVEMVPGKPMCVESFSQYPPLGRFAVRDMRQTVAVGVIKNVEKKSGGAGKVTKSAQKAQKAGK
# UniProt P05198, whole entry, looked up: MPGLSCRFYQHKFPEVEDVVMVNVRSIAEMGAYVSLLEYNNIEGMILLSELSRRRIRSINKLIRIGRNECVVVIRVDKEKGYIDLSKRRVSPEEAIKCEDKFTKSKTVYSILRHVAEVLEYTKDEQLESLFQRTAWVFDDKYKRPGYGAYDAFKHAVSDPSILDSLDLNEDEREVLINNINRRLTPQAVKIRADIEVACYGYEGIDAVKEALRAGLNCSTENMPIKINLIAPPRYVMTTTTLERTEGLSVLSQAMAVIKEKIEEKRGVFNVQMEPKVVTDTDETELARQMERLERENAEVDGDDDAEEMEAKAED
# UniProt Q6P2E9: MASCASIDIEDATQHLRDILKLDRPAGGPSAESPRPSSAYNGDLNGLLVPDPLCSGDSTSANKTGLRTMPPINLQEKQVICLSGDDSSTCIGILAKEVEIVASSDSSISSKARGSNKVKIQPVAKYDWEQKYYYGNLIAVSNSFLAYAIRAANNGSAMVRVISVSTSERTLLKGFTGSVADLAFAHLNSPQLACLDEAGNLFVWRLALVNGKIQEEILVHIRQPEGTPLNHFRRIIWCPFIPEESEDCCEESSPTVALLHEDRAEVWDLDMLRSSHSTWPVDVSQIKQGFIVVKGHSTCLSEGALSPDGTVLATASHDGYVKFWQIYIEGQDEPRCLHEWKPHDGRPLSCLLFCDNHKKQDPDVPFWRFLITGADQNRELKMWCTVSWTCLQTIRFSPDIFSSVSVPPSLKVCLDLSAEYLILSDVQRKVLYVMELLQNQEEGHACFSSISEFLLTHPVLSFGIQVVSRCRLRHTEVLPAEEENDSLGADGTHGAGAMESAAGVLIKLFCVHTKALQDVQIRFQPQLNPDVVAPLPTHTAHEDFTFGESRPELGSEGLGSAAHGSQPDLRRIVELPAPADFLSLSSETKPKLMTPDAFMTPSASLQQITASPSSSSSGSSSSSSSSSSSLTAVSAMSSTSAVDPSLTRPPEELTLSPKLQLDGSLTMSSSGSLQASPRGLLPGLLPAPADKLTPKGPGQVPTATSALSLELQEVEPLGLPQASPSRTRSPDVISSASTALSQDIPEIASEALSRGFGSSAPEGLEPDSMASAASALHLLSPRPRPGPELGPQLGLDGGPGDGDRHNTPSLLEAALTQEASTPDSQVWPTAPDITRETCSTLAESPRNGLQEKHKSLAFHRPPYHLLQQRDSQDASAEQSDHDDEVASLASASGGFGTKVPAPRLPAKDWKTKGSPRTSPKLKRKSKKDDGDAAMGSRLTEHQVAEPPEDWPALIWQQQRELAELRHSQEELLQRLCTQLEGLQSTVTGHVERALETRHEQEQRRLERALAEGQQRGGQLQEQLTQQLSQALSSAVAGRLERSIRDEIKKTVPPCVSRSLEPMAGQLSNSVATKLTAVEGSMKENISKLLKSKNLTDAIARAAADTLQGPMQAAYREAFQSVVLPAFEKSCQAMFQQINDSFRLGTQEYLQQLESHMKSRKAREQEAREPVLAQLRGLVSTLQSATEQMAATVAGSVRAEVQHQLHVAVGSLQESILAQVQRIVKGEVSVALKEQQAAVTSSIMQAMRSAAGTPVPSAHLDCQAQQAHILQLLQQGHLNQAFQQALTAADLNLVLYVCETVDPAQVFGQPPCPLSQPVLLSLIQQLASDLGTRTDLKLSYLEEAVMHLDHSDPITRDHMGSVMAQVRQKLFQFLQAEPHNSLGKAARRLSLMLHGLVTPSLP
# UniProt O75530, whole entry, looked up: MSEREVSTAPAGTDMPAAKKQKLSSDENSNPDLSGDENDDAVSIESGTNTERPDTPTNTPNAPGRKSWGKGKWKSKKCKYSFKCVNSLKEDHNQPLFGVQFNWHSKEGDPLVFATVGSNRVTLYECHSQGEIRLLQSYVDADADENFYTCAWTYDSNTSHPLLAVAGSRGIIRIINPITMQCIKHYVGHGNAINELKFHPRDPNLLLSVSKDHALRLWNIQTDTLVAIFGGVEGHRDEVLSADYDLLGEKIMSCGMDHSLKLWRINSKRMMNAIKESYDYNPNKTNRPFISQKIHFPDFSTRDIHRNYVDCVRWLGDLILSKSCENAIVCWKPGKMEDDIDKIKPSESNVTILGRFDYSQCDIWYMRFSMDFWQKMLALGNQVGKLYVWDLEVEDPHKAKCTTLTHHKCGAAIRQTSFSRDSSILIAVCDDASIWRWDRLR
# This is one part of the list.
# Compound: CC1Cc2ccccc2N1C(=O)C1CCCN(C1)C(=O)CCl (mixture of isomers) [TRIM25 ligand 11 (diastereomer mixture)]
# Experiment: probe-labelled cysteine peptide fold change vs DMSO (competition) (log2 fold change); higher = less target engagement (more negative = stronger competition)
# Conditions: THP-1, incubation time: 4 h
# 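Note: competitive chemoproteomic profiling in live THP-1 cells with an iodoacetamide desthiobiotin (IA-DTB) probe, comparing probe-labelled peptide intensities in compound-treated cells against DMSO-treated controls.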
Target,probe-labelled cysteine peptide fold change (10 µM),probe-labelled cysteine peptide fold change (50 µM)
ECH1_Q13011_182_CPKPVIAAVHGGCIGGGVDLVTACDIR (UniProt Q13011),-0.0944,-0.0748
EEF1A1_P68104_411_SGDAAIVDMVPGKPMCVESFSDYPPLGR (UniProt P68104),-0.107,-0.29
ECT2_Q9H8V3_796_HVANTICK (UniProt Q9H8V3),0.106,0.0725
EEF1AKMT1_Q8WVE0_79_IACVSAPSVYQK (UniProt Q8WVE0),0.205,-0.00479
ECM1_Q16610_269_FSCFQEEAPQPHYQLR (UniProt Q16610),0.855,0.858
EEF1A2_Q05639_326_GNVCGDSK (UniProt Q05639),-0.132,-0.176
EIF2S1_P05198_70_IGRNECVVVIR (UniProt P05198),-0.126,0.103
EDC4_Q6P2E9_976_LCTQLEGLQSTVTGHVER (UniProt Q6P2E9),-0.0914,0.0799
EEF1A1_P68104_363_GNVAGDSKNDPPMEAAGFTAQVIILNHPGQISAGYAPVLDCHTAHIACK (UniProt P68104),-0.319,-0.432
EEF1A1_P68104_234_DGNASGTTLLEALDCILPPTR (UniProt P68104),-0.244,-0.204
EEF2_P13639_591_ETVSEESNVLCLSK (UniProt P13639),-0.101,-0.265
EEF1A1_P68104_234_DGNASGTTLLEALDCILPPTRPTDKPLR (UniProt P68104),-0.206,-0.265
EED_O75530_361_FDYSQCDIWYMR (UniProt O75530),0.222,0.127

# Some of the entries above, reformatted.
Target | probe-labelled cysteine peptide fold change (10 µM) | probe-labelled cysteine peptide fold change (50 µM)
EEF1A1_P68104_411_SGDAAIVDMVPGKPMCVESFSDYPPLGR (UniProt P68104) | -0.107 | -0.29
EEF1AKMT1_Q8WVE0_79_IACVSAPSVYQK (UniProt Q8WVE0) | 0.205 | -0.00479
EEF1A2_Q05639_326_GNVCGDSK (UniProt Q05639) | -0.132 | -0.176
